From PubChem BioAssay AID2685 (National Center for Advancing Translational Sciences (NCATS), 2010)
The list shows a part of the results. The main result of the screen is listed elsewhere. These columns were measured beside it and carry no call. The list favours compounds with an active or inconclusive main result. Potencies come from curve fits of mixed quality, noted in brackets.

Test: qHTS Assay for Lipid Storage Modulators in Drosophila S3 Cells;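 as to cell number change: cells counted by Cell Tracker Red CMTPX staining in the red channel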
Conditions: BODIPY lipid droplet fluorescence, 18-24 h; for cell number change: measured here: cell count max response, cells fed with added oleic acid
How it was run: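 Drosophila S3 cells loaded with oleic acid (400 uM, as added) and compounds at several concentrations; lipid droplets imaged by 488-nm laser-scanning cytometry, 500–530 nm intensity and object ratio to cell channel. Percent activity normalized to 20 uM Triacsin C.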

[1] = measured here: cell number channel AC50, cells fed with added oleic acid
[2] = measured here: lipid fluorescence (Fed channel) AC50, cells fed with added oleic acid

Structure (SMILES) | cell number change [%] | AC50 [1] | AC50 [2]
Clc1ccc2c(N/N=C/c3cccc(Br)c3)ccnc2c1 | -93.3 | 29.1 µM [falling, single point] | –
O=c1[nH]c2ccc(NS(=O)(=O)c3ccc(F)c(Cl)c3)cc2[nH]1 | 15.3 | – | 11.6 µM [falling, single point]
Cc1cccc(NC(=O)C23CCC(C)(/C(=N/O)C2)C3(C)C)c1 (stereo not given) | 2.76 | 0.116 µM [falling, full curve, poor fit] | 6.51 µM [falling, single point]
O=C(COc1nc2ccccc2nc1N1CCOCC1)Nc1ccc(S(=O)(=O)N2CCCC2)cc1 | -46.6 | 14.6 µM [falling, partial curve] | –
COc1ccccc1N1CCN(Cc2cc(=O)c(OCC#N)co2)CC1 | 6.8 | – | 29.1 µM [rising, single point]
CCOC(=O)C1(Cc2cccc(OC)c2)CCN(Cc2ccc(OC)c(OC)c2)CC1 | -0.745 | 0.731 µM [falling, full curve] | 0.58 µM [falling, full curve]
COc1ccc(C[C@H]2CN3C(=NC[C@@H]3Cc3ccc(O)cc3)N2C[C@H](C)NC(=O)CCC2CCCCC2)cc1 | 1.11 | – | 25.9 µM [rising, single point]
CCOCCCn1c(=NC(=O)c2ccc(OC)c(OC)c2)c(C#N)cc2c(=O)n3cccc(C)c3nc21 | 22.6 | – | 1.64 µM [rising, partial curve]
c1ccc2sc(SN3CCOCC3)nc2c1 | 2.21 | 5.17 µM [falling, single point] | –
O=C(Nc1ccc(-c2nnc3n2CCCCC3)cc1)c1ccco1 | 28.9 | – | 29.1 µM [rising, single point]
CC1CN(S(=O)(=O)c2ccc(-c3nc4ccccc4s3)cc2)CC(C)O1 (stereo not given) | – | 0.58 µM [rising, partial curve] | –
COCCn1c(C(=O)N2CCCC2)cc2c1C[C@H]1CN(C(=O)c3ccccc3)[C@@](Cc3ccc(F)cc3)(C(=O)OC)[C@@H]21 | -38.1 | 20.6 µM [falling, single point] | 16.4 µM [falling, partial curve]
Cc1cccc(NC(=O)CN2C(=O)S/C(=C\C(=O)Nc3ccc(Cl)cc3)C2=O)c1 | -24.9 | 3.66 µM [falling, single point] | –
CCCCn1c(SCC(=O)NC2CCS(=O)(=O)C2)nc2ccccc2c1=O (stereo not given) | -2.83 | – | 0.00461 µM [falling, full curve, poor fit]
CCOCCCNC(=O)C(c1ccc(OC)cc1)N(Cc1cccs1)C(=O)c1ccccn1 (stereo not given) | – | – | 29.1 µM [falling, partial curve]
Cc1ccc(C2=NN(S(=O)(=O)c3ccccc3)C(c3ccccc3O)C2)cc1 (stereo not given) | -47.5 | 20.6 µM [falling, single point] | 23.1 µM [falling, partial curve]
Cc1nn(CC(=O)N2CCC(C)CC2)c(=O)c2cccn12 | – | – | 0.731 µM [falling, single point]
CCN(CC(=O)NCc1ccc(Cl)cc1)C(=O)c1cccc(S(=O)(=O)Nc2ccc(OC)cc2)c1 | – | 6.51 µM [falling, single point] | –
O=C(Nc1cccc(NC(=O)c2ccccc2[N+](=O)[O-])c1)c1ccccc1Cl | -7.43 | – | –
CC(NC(=O)c1ccco1)C1CCCO1 (stereo not given) | 7.62 | – | 1.3 µM [falling, full curve]
Cc1c(C(=O)OCC(C)(C)CN(C)C)oc2ccccc12 | – | 1.16 µM [falling, partial curve] | 1.84 µM [falling, partial curve]
COC(=O)c1ccc(C2C3=C(Nc4nnnn42)c2ccccc2OC3)cc1 (stereo not given) | 14.9 | 2.59 µM [falling, single point] | –
Cc1ccc2nc(NC(=O)CCNS(=O)(=O)c3ccc(Br)s3)sc2c1 | -50.8 | 32.6 µM [falling, single point] | 29.1 µM [falling, single point]
Cc1ccc(N2CC(C(=O)N3CCC(C(=O)NC(C)(C)C)CC3)CC2=O)cc1 (stereo not given) | -4.27 | – | 23.1 µM [falling, single point]
CC(NC(=O)c1cccc(S(=O)(=O)N2CCc3ccccc32)c1)c1ccco1 (stereo not given) | -7.31 | – | –
COc1cc(/C=N/NC(=O)c2cccs2)ccc1O | 17 | – | 29.1 µM [rising, single point]
Cc1ccc(N/C=C/C(=O)c2ccccc2)cc1C | 2.92 | – | 10.3 µM [rising, partial curve]
Cc1ccc(N2C(=O)[C@@H]3C(C(=O)C(c4ccccc4)c4ccccc4)=NN[C@@H]3C2=O)cc1 | 6.27 | – | 6.51 µM [rising, single point]

Quoted from the results shown (2 entries):
Structure (SMILES) | cell number change [%] | AC50 [1] | AC50 [2]
CC(NC(=O)c1ccco1)C1CCCO1 (stereo not given) | 7.62 | – | 1.3 µM [falling, full curve]
Cc1c(C(=O)OCC(C)(C)CN(C)C)oc2ccccc12 | – | 1.16 µM [falling, partial curve] | 1.84 µM [falling, partial curve]
